Taken from: PubChem BioAssay AID504764 (Drosophila RNAi Screening Center, 2011)
Test: 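Genes whose knock-down alters Notch-dependent transcription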 (primary screen). Cell system: Drosophila Kc167 cells. Reagent: long dsRNA against Drosophila genes. Timing: about 5 days (4 days dsRNA, then 24 h after transfection). Conditions: transfection of constitutively active membrane-tethered Notch lacking the extracellular domain, read 24 h later. Read-out: 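Firefly luciferase from an E(spl)m3 reporter with active Notch, plus control-promoter and uninduced reporter wells for normalisation; unnormalised counts, duplicate wells a and b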. Reading the numbers: induced reporter light, run 1, well a and induced reporter light, run 1, well b: higher = more light from the Notch target reporter with active Notch; control promoter light, run 1, well a and control promoter light, run 1, well b: higher = more light from the viral control promoter (cell number, transfection, viability); uninduced reporter light, run 1, well a: higher = more light from the Notch target reporter without active Notch. Rule for the call: 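Wells with low control signal or poorly matching duplicates excluded; duplicates averaged; per source plate, z beyond ±2 for induced/control log2 ratio or beyond ±1.8 for induced/uninduced marks a hit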. Calls: active = modifier hit (raised or lowered Notch signal); inactive = not a hit.
The screen tested about 22,000 reagents; shown is an unselected part of those that have a named target and a result. Over the whole deposit, 403 (1.9%) were called active. 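Unnormalised raw counts per well; ratio z-scores behind the hit calls and whether each hit raises or lowers signal are not deposited.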 A plus sign joins genes that one reagent is predicted to hit. No sequences are given here. Not stated in the record: the amount of reagent.

no.	gene	dsRNA	induced reporter light, run 1, well a	induced reporter light, run 1, well b	control promoter light, run 1, well a	control promoter light, run 1, well b	uninduced reporter light, run 1, well a	Outcome
1	CG13086	DRSC02190	72275	72870	88140	1.20e5	4955	inactive
2	l(3)neo43 (lethal (3) neo43)	DRSC14988	2.18e5	2.31e5	2.04e5	1.89e5	17240	inactive
3	ari-1 (ariadne 1)	DRSC20308	74025	72310	62730	64095	8435	inactive
4	Gad1 (Glutamic acid decarboxylase 1)	DRSC08661	75275	89060	68935	33470	6100	inactive
5	ems (empty spiracles)	DRSC16941	1.96e5	1.59e5	1.56e5	1.62e5	14145	inactive
6	CG11663	DRSC17793	27145	29470	52620	50465	6250	inactive
7	Rab4	DRSC07524	1.21e5	99920	2.04e5	2.95e5	9505	inactive
8	CG15211	DRSC19657	1.30e5	1.30e5	2.06e5	1.87e5	10965	inactive
9	CG6665	DRSC07006	95815	1.19e5	2.09e5	2.08e5	9810	inactive
10	veil	DRSC06892	98055	89750	1.67e5	1.92e5	8715	inactive
11	Tspo (Translocator protein)	DRSC00533	1.28e5	1.40e5	1.14e5	1.17e5	10130	inactive
12	CG4238	DRSC00090	1.10e5	1.09e5	1.54e5	1.67e5	7545	inactive
13	CG4238	DRSC00644	1.52e5	1.45e5	1.27e5	85320	10240	inactive
14	CG11504	DRSC14318	1.71e5	1.78e5	2.46e5	2.22e5	11655	inactive
15	Adh + Adhr	DRSC01862	3.14e5	2.82e5	1.99e5	1.97e5	14940	active
16	Adh + Adhr	DRSC01863	1.53e5	1.60e5	1.42e5	1.55e5	13710	inactive
17	CG30339	DRSC05168	37860	46925	49135	53220	2305	inactive
18	Mef2 (Myocyte enhancer factor 2)	DRSC07468	1.39e5	1.16e5	80170	78580	11750	inactive
19	CG14374	DRSC14834	1.92e5	2.70e5	2.55e5	1.94e5	17642	inactive
20	Dr (Drop)	DRSC17002	2.23e5	2.45e5	2.43e5	2.72e5	15695	inactive
21	CG15888	DRSC15125	2.55e5	2.55e5	2.37e5	2.52e5	21065	inactive
22	CG8141	DRSC16387	2.86e5	2.57e5	2.50e5	2.56e5	20540	inactive
23	CG1847	DRSC19810	2.07e5	2.16e5	2.35e5	2.01e5	13365	inactive
24	dimm (dimmed)	DRSC03100	57665	34745	46895	45675	4210	inactive
25	CG9521	DRSC20196	1.03e5	84980	1.03e5	91150	14850	inactive
26	Psf1 (Partner of Sld Five 1)	DRSC08638	1.02e5	1.11e5	2.19e5	2.37e5	10225	inactive
27	CR30029 (pseudo)	DRSC06724	1.24e5	1.14e5	1.66e5	1.32e5	12240	inactive
28	mdu (meduse)	DRSC19860	7580	7680	3755	4540	2860	inactive
29	PCID2 (PCI domain-containing protein 2)	DRSC10822	1.32e5	1.63e5	1.34e5	77605	15355	inactive
30	nAChRalpha7 (nicotinic Acetylcholine Receptor alpha7)	DRSC20078	66480	80990	76035	1.19e5	9040	inactive
31	nAChRalpha7 (nicotinic Acetylcholine Receptor alpha7)	DRSC20081	75685	1.02e5	73125	79500	9010	inactive
32	Atet (ABC transporter expressed in trachea)	DRSC00263	2.57e5	2.05e5	2.69e5	2.44e5	12115	inactive
33	tal-1A + tal-2A + tal-AA + 1 more	DRSC12992	1.27e5	1.16e5	1.22e5	1.39e5	8850	inactive
34	Syt4 (Synaptotagmin 4)	DRSC12606	83250	1.15e5	1.27e5	1.13e5	9035	inactive
35	CG6295	DRSC16012	1.37e5	1.53e5	1.71e5	1.67e5	13455	inactive
36	pst (pastrel)	DRSC11003	1.33e5	1.32e5	1.40e5	82250	14935	inactive
37	Rsph4a (Radial spoke head protein 4a)	DRSC04338	2.21e5	2.18e5	1.99e5	1.89e5	14680	inactive
38	CheB53b (Chemosensory protein B 53b)	DRSC05613	79845	81245	1.26e5	1.05e5	7505	inactive
39	Lip4 (Lipase 4)	DRSC02930	1.29e5	1.51e5	70405	85210	18950	inactive
40	AMPdeam (AMP deaminase)	DRSC18996	93075	1.03e5	76295	86015	7340	inactive
41	AMPdeam (AMP deaminase)	DRSC19366	1.67e5	1.46e5	1.87e5	1.97e5	9170	inactive
42	AMPdeam (AMP deaminase)	DRSC19368	1.20e5	1.23e5	1.32e5	1.50e5	17215	inactive
43	AMPdeam (AMP deaminase)	DRSC19727	1.24e5	1.20e5	1.91e5	1.62e5	17845	inactive
44	ubl (ubiquitin like)	DRSC04998	2.11e5	2.40e5	2.32e5	2.00e5	14215	active
45	PTP-ER (Protein tyrosine phosphatase-ERK/Enhancer of Ras1)	DRSC04636	1.59e5	1.72e5	1.91e5	2.27e5	15205	inactive
46	hry (hairy)	DRSC11353	24725	21475	13310	4665	7590	inactive
47	CNT1 (Concentrative nucleoside transporter 1)	DRSC06082	2.13e5	1.83e5	1.94e5	2.09e5	17325	inactive
48	CG31817	DRSC01537	75370	80340	70740	57340	5315	inactive
49	CG31817	DRSC01538	84270	77690	61960	45840	5705	inactive
50	sip3 (septin interacting protein 3)	DRSC15402	2.25e5	2.00e5	2.32e5	2.12e5	13645	inactive

Reformatted: results already given
gene | dsRNA | induced reporter light, run 1, well a | induced reporter light, run 1, well b | control promoter light, run 1, well a | control promoter light, run 1, well b | uninduced reporter light, run 1, well a | Outcome
CG1847 | DRSC19810 | 2.07e5 | 2.16e5 | 2.35e5 | 2.01e5 | 13365 | inactive
dimm (dimmed) | DRSC03100 | 57665 | 34745 | 46895 | 45675 | 4210 | inactive
CG9521 | DRSC20196 | 1.03e5 | 84980 | 1.03e5 | 91150 | 14850 | inactive
